Reference: US20020091086A1, “Peptides that block viral infectivity and methods of use thereof” (priority 1999, published 2002)
Some results were stated once for a whole list of compounds, not compound by compound. Peptide text beside a SMILES is read from it.

Key:
HIV-2 = HIV-2 infectivity assay in H9 cells, RT activity in supernatant; type: cell-based; details: first five experiments (Tables 2-6)
SIV = SIV infectivity assay in H9 cells, RT activity in supernatant; type: cell-based; details: first five experiments (Tables 2-6)

## NCCCC[C@H](NC(=O)CN)C(=O)NCC(N)=O [GKG-NH2, glycyl-lysyl-glycine amide] (H-Gly-Lys-Gly-NH2)
HIV-2
  concentrations that inhibit HIV-2 infection: ≥ 5 µM
SIV
  concentrations that inhibit SIV infection: ≥ 5 µM
